From PubChem BioAssay (NCATS)
“And” between values parts separate entries of the source, which are not always exact repeats. Equal entries are not always repeated. The list shows a part of the results. These are further read-outs of the screen, such as a control signal, another cell line or another target. No call is given for them. Compounds called inactive in the main read-out are mostly missing here. The note in brackets gives the kind of curve behind each potency; many fits are weak. Numbered stars: 1 amine (or outer) side, 2 acyl side, 3 side chain; on linkers, the order of the positions; unused ones are H or OH. Bridge positions count the residues as written; N and C are the ends. Square brackets hold non-standard residues; d marks the D form. Peptide text beside a SMILES is read from it. I, II: the chains in the order shown. Actinocin(9to1) = Cc1c2oc3c(C)ccc(C(=O)[*:1])c3nc-2c(C(=O)[*:2])c(N)c1=O; NMeV = CN[C@H](C(=O)O)C(C)C; Sar = CNCC(=O)O

Test: qHTS assay for small molecule antagonists of androgen receptor signaling (AID 588516)
Settings: AR-UAS-bla HEK293, beta-lactamase ratio, antagonist mode, 16 h; measured here: W460 blue channel fit
Source text: NIH Chemical Genomics Center [NCGC] U.S. Environmental Protection Agency [EPA] National Institutes of Environmental Health Sciences [NIEHS] National Toxicology Program [NTP] NCGC Assay Overview Androgen receptor (AR), located at chromosome Xq11-12, is an important member of nuclear hormone receptors. AR signaling plays a critical role in AR-dependent prostate cancer and other androgen related diseases. Considerable attention has been given in the past decades to the possibility of some of environmental chemicals which may contribute the endocrine disruption. Therefore, it is important to understand the effect of environmental chemicals in AR signaling pathway.
NCGC Assay Protocol Summary Using a beta-lactamase reporter-gene under control of the AR response element, a cell-based assay [GeneBLAzer AR-UAS-bla-GripTite assay developed by Invitrogen] was used to measure AR ligands signaling. AR-UAS-bla-GripTite HEK 293 cells were used with assay medium containing 10% dialyzed FBS, 0.1 mM NEAA and 1 mM sodium pyruvate. The assay was performed in clear bottom black Greiner 1536-well plates. Library compounds were measured for their ability to inhibit the reporter gene activity. Compounds were screened in a titration series in 1536-well format. The fluorescence intensity (405 nm excitation, 460/530 nm emission) was measured using an EnVision plate reader. Data was normalized relative to R1881 (10nM, 100%), and DMSO only wells (basal, 0%). Concentration-response titration points for each compound were fitted to the Hill equation yielding concentrations of half-maximal inhibition (IC50) and maximal response (efficacy) values. qHTS protocol for AR beta-lactamase assay in antagonist mode [Step] [Parameter] [Value] [Description] 1. Reagent; 5 uL; 2000 cells/well 2. Incubation; 37 C for 5 hrs 3. Compounds; 23 nL; 0.59 nM to 92 uM 4. Controls (Cyp Ac, AR antagonist); 23 nL, dose response, 1:3 dilutions with duplicates 5. Agonist (Stimulator); 1uL; R1881 at 10nM (final) concentration 6. Incubation; 37 C for 16 hrs 7. Detection reagent; 1 uL of CCF4-dye 8. Incubation; RT for 2 hrs 9. Detection; Fluorescence; Envision plate reader

Row | SMILES | AC50
1 | COc1ccc2c(c1)c(CC(=O)O)c(C)n2C(=O)c1ccc(Cl)cc1 | 15.8 µM [rising, single point]
2 | COC(=O)CSc1cc(N=c2sc(=O)n3n2CCCC3)c(F)cc1Cl | 0.00316 µM [rising, full curve, poor fit]
3 | Oc1c(Cl)cc(Cl)c(Cl)c1Cc1c(O)c(Cl)cc(Cl)c1Cl | 12.6 µM [falling, full curve] and 28.2 µM [falling, partial curve]
4 | NCCNc1cccc2ccccc12 | 44.7 µM [falling, partial curve, poor fit]
5 | Oc1ccc(Nc2ccccc2)cc1 | 44.7 µM [falling, partial curve, poor fit]
6 | Cc1cc(O)c(C(C)(C)C)cc1Sc1cc(C(C)(C)C)c(O)cc1C | 50.1 µM [falling, partial curve, poor fit] and 50.1 µM [falling, single point]
7 | Cc1c2ccccc2c(C)c2c1ccc1ccccc12 | 25.1 µM [falling, full curve] and 12.6 µM [rising, partial curve]
8 | N=C1C=CC(=C(c2ccc(N)cc2)c2ccc(N)cc2)C=C1 | 44.7 µM [falling, partial curve, poor fit]
9 | C[C@]12CC[C@@H]3c4ccc(O)cc4CC[C@H]3[C@@H]1CCC2=O | 44.7 µM [falling, partial curve, poor fit]
10 | CC(=O)C1(C)CC2=C(CCCC2(C)C)CC1C (stereo unspecified) | 7.08 µM [falling, partial curve, poor fit]
11 | Cc1c2oc3c(C)ccc(C(=O)N[C@@H]4C(=O)N[C@H](C(C)C)C(=O)N5CCC[C@H]5C(=O)N(C)CC(=O)N(C)[C@@H](C(C)C)C(=O)O[C@@H]4C)c3nc-2c(C(=O)N[C@@H]2C(=O)N[C@H](C(C)C)C(=O)N3CCC[C@H]3C(=O)N(C)CC(=O)N(C)[C@@H](C(C)C)C(=O)O[C@@H]2C)c(N)c1=O (I: T[dV]P[Sar][NMeV] / II: T[dV]P[Sar][NMeV]; ester I:1-I:C, II:1-II:C; linker I:N-II:N via Actinocin(9to1)) | 28.2 nM [falling, full curve] and 39.8 nM [falling, full curve]
12 | CC(C)(O)CCC(C)(C)O | 7.08 µM [falling, partial curve, poor fit]
13 | C[C@H]1O[C@@H](O[C@H]2[C@@H](O)C[C@H](O[C@H]3[C@@H](O)C[C@H](O[C@H]4CC[C@@]5(C)[C@H](CC[C@@H]6[C@@H]5C[C@@H](O)[C@]5(C)[C@@H](C7=CC(=O)OC7)CC[C@]65O)C4)O[C@@H]3C)O[C@@H]2C)C[C@H](O)[C@@H]1O | 1 µM [falling, full curve]
14 | O=C1NC(=O)C(Cc2ccc(OCCN3COc4ccccc4C3=O)cc2)S1 (stereo unspecified) | 12.6 µM [rising, full curve, poor fit]
15 | CC(=O)Oc1ccc(C(c2ccc(OC(C)=O)cc2)c2ccccn2)cc1 | 0.0355 µM [falling, full curve, poor fit]
16 | Nc1ncn([C@@H]2O[C@H](CO)[C@@H](O)[C@H]2O)c(=O)n1 | 7.94 µM [falling, partial curve] and 1.41 µM [falling, full curve]
17 | Cc1c(C)c2c(c(C)c1O)CCC(C)(COc1ccc(CC3SC(=O)NC3=O)cc1)O2 (stereo unspecified) | 12.6 µM [rising, partial curve]
18 | O=S(=O)(c1ccccc1)N(CC(F)(F)F)c1ccc(C(O)(C(F)(F)F)C(F)(F)F)cc1 | 50.1 µM [falling, partial curve, poor fit]
19 | CCCC(=O)c1cc(O)c(O)cc1O | 70.8 µM [rising, single point]
20 | Cc1ccc(C)c(OCCCC(C)(C)C(=O)O)c1 | 31.6 µM [falling, partial curve, poor fit]
21 | Cc1ccc(S(=O)(=O)C(I)I)cc1 | 39.8 µM [falling, partial curve]
22 | CC(=O)O[C@H]1C(=O)[C@@]2(C)[C@H]([C@H](OC(=O)c3ccccc3)[C@]3(O)C[C@H](OC(=O)[C@H](O)[C@@H](NC(=O)c4ccccc4)c4ccccc4)C(C)=C1C3(C)C)[C@]1(OC(C)=O)CO[C@@H]1C[C@@H]2O | 0.316 µM [falling, full curve, poor fit]
23 | Cc1ccc(S(=O)(=O)Oc2ccc(N=Nc3ccc(-c4ccc(N=Nc5c(O)ccc6cc(S(=O)(=O)O)cc(S(=O)(=O)O)c56)c(C)c4)cc3C)cc2)cc1 | 0.0501 µM [falling, full curve, poor fit]
24 | CC(=O)OC(C(=O)c1ccccc1)c1ccccc1 (stereo unspecified) | 70.8 µM [falling, single point]
25 | O=C(Nc1ccc(Cl)cc1)Nc1ccc(Cl)c(Cl)c1 | 25.1 µM [falling, full curve, poor fit]
26 | NC(=NCCCCCCN=C(N)/N=C(\N)Nc1ccc(Cl)cc1)/N=C(\N)Nc1ccc(Cl)cc1 | 35.5 µM [falling, full curve, poor fit]

Same assay, conditions: AR-UAS-bla HEK293, beta-lactamase ratio, antagonist mode, 16 h; measured here: W530 green channel, cytotoxicity/artifact

Row | SMILES | AC50
27 | COc1ccc2c(c1)c(CC(=O)O)c(C)n2C(=O)c1ccc(Cl)cc1 | 3.16 µM [rising, full curve]
28 | COC(=O)CSc1cc(N=c2sc(=O)n3n2CCCC3)c(F)cc1Cl | 50.1 µM [rising, single point]
29 | Oc1c(Cl)cc(Cl)c(Cl)c1Cc1c(O)c(Cl)cc(Cl)c1Cl | 8.91 µM [rising, full curve] and 22.4 µM [rising, full curve]
30 | COc1cc(/C=C/C(=O)CC(=O)/C=C/c2ccc(O)c(OC)c2)ccc1O | 35.5 µM [rising, partial curve]
31 | Oc1ccc(Nc2ccccc2)cc1 | 6.31 µM [rising, full curve, poor fit]
32 | O=C(NO)c1ccccc1 | 15.8 µM [rising, full curve, poor fit]
33 | Cc1c2ccccc2c(C)c2c1ccc1ccccc12 | 8.91 µM [rising, partial curve] and 28.2 µM [rising, partial curve]
34 | N=C1C=CC(=C(c2ccc(N)cc2)c2ccc(N)cc2)C=C1 | 28.2 µM [rising, partial curve]
35 | Cc1c2oc3c(C)ccc(C(=O)N[C@@H]4C(=O)N[C@H](C(C)C)C(=O)N5CCC[C@H]5C(=O)N(C)CC(=O)N(C)[C@@H](C(C)C)C(=O)O[C@@H]4C)c3nc-2c(C(=O)N[C@@H]2C(=O)N[C@H](C(C)C)C(=O)N3CCC[C@H]3C(=O)N(C)CC(=O)N(C)[C@@H](C(C)C)C(=O)O[C@@H]2C)c(N)c1=O (I: T[dV]P[Sar][NMeV] / II: T[dV]P[Sar][NMeV]; ester I:1-I:C, II:1-II:C; linker I:N-II:N via Actinocin(9to1)) | 20 nM [rising, full curve] and 25.1 nM [rising, full curve]
36 | C[C@H]1O[C@@H](O[C@H]2[C@@H](O)C[C@H](O[C@H]3[C@@H](O)C[C@H](O[C@H]4CC[C@@]5(C)[C@H](CC[C@@H]6[C@@H]5C[C@@H](O)[C@]5(C)[C@@H](C7=CC(=O)OC7)CC[C@]65O)C4)O[C@@H]3C)O[C@@H]2C)C[C@H](O)[C@@H]1O | 0.355 µM [rising, full curve]
37 | O=C1NC(=O)C(Cc2ccc(OCCN3COc4ccccc4C3=O)cc2)S1 (stereo unspecified) | 11.2 µM [rising, full curve, poor fit]
38 | Nc1ncn([C@@H]2O[C@H](CO)[C@@H](O)[C@H]2O)c(=O)n1 | 4.47 µM [rising, full curve]
39 | Cc1c(C)c2c(c(C)c1O)CCC(C)(COc1ccc(CC3SC(=O)NC3=O)cc1)O2 (stereo unspecified) | 15.8 µM [rising, full curve, poor fit]
40 | Nc1cc(Cl)c(O)c(Cl)c1 | 31.6 µM [rising, partial curve, poor fit]
41 | NC(=NCCCCCCN=C(N)/N=C(\N)Nc1ccc(Cl)cc1)/N=C(\N)Nc1ccc(Cl)cc1 | 44.7 µM [rising, single point]
